These are yes or no findings as the source states them, for the method shown. In cells and extracts the contact can be indirect. Some binding calls cover weakened binding; strength is not graded here.
Molecular target: Endogenous mouse ETV1 (mouse (endogenous in AB-1 embryonic stem cells)) (UniProt P41164)
Assay: co-IP; endogenous Pkp3 or ETV1 immuno-precipitated from nuclear extracts of AB-1 mouse embryonic stem cells; 200 mM NaCl, washes with 0.5% Triton X-100, 0.5% sodium deoxycholate, 0.1% SDS; blot for Pkp3 and ETV1

Protein sequences, listed by entry. Tags and fused reporters are not part of them.
UniProt P41164: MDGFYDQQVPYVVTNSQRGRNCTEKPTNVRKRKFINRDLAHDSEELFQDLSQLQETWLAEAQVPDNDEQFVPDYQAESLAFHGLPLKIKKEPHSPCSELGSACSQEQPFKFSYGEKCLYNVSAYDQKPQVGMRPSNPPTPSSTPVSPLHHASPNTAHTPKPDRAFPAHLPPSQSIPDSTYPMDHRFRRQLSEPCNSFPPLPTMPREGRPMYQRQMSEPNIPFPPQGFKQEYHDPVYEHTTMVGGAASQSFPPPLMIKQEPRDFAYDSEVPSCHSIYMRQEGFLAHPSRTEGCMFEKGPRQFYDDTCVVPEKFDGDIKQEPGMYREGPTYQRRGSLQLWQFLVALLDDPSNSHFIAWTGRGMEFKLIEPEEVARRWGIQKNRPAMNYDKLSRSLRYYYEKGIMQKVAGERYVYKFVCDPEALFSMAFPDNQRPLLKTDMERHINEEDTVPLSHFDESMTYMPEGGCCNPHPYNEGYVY

- binding: binds
B1: Endogenous mouse Pkp3 (protein, UniProt Q9QY23 1-797)
chain: MQEGNFLLSALQPETGVCSLALPSDLQLDRRGAEGPEADRLRAARVQEQVRARLLQLGQQSRHNGSAELDGSAESARGMPRGQYHTMQTGFSSRSQGMSGDKTSTFRPIAKPAYSPASWSSRSAVDLTCSRRLSSAHNGGSAFGAVGYGGTQPTPPMPTRPVSFHERGGAASRADYDTLSLRSLRLGPGGLDDRYSVVSEQLEPAAASTYRAYAYERQASSGSSRAGGLDWPEATEGPPSRTIRAPAMRTLQRFQSSHRSRGGTGSVSGAGLEPVARAPSVRSLSLSLADSGHLPDVRGLDSYTGHRTLQRLSSGFDDIDLPSAVKYLMASDPNLQVLGAAYIQHRCYSDAAAKKQARSLQAVPRLVKLFNHANQEVQRHATGAMRNLIYDNVDNKLALVEENGIFELLRTLREQDDELRKNVTGILWNLSSSDHLKDRLARDTLEQLTDLVLSPLSGAGGPPLIQQNASEAEIFYNATGFLRNLSSASQATRQKMRECHGLVDALVTYINHALDVGKCEDKSVENAVCVLRNLSYRLYDEMPPSALQRLEGRGRRDMAGAPPGEMVGCFTPQSRRLRELPLTADALTFAEVSKDPKGLEWLWSPQIVGLYNRLLQRCELNRHTTEAAAGALQNITAGDRRWAGVLSRLALEQERILNPLLDRVRTADHNQLRSLTGLIRNLSRNARNKDEMSTKVVSHLIEKLPGSVGEKCPPAEVLVNIIAVLNNLVVASPIAARDLLYFDGLRKLVFIKKKRDSPDSEKSSRAASSLLANLWQYSKLHRDFRAKGYRKEDFLGP
